Data as given in PubChem BioAssay AID1224828 (NIAID, 2016)
This is a random part of about 17,000 reagents. 762 of them (4.5%) count as active. 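Active calls include both raised and lowered p65 entry, mostly lowered; wells with fewer than 50 cells lack a z-score.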 Raw values are not corrected between plates.

- Test: 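Find genes required for NF-kappaB p65 moving into the nucleus after LPS in mouse macrophages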 (primary screen)
- Cell system: mouse RAW264.7 G9 macrophage reporter cells (GFP-p65, Tnf promoter-mCherry)
- Knock-down reagent: siRNA pool against mouse genes, 100 nM
- Duration: 2 days siRNA transfection, then 40 min LPS before fixation
- Treatment: LPS (Salmonella minnesota R595) at 10 ng/ml
- Measured: 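Imaged p65 nuclear translocation ratio, normalised to the plate median, converted to robust z-scores and averaged across two replicates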
- Direction: p65 translocation robust z-score: higher = more nuclear NF-kappaB p65 after LPS than the plate median; nuclear/cytoplasmic p65 ratio: higher = more nuclear NF-kappaB p65
- Active means: 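Active if robust z is above 3.3 (negative regulators) or below -1.56, the Tlr4 control median (positive regulators); activity score 50 or more; control wells not called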
- Meaning of the calls: active = hit (p65 shift raised or lowered); inactive = no clear change

gene,p65 translocation robust z-score,"nuclear/cytoplasmic p65 ratio, rep 1","nuclear/cytoplasmic p65 ratio, rep 2",low cell count flag,call
Npnt (GeneID 114249),2.2,1.99,1.91,enough cells to score,inactive
Cyct (GeneID 13067),2.6,1.83,2.35,enough cells to score,inactive
Gys2 (GeneID 232493),-0.19,1.39,1.37,enough cells to score,inactive
Or10ak13 (GeneID 258306),,1.82,1.48,fewer than 50 cells per well; well left out of scoring,inactive
Mob2 (GeneID 101513),,1.05,1.16,fewer than 50 cells per well; well left out of scoring,inactive
Hepacam (GeneID 72927),1.05,1.37,1.38,enough cells to score,inactive
Or2c1 (GeneID 18312),0.78,1.51,1.81,enough cells to score,inactive
Mok (GeneID 26448),0.12,1.67,1.42,enough cells to score,inactive
Olfr899 (GeneID 258472),-0.58,1.33,1.23,enough cells to score,inactive
Pex13 (GeneID 72129),-0.77,1.2,1.3,enough cells to score,inactive
Atg101 (GeneID 68118),,1.25,1.49,fewer than 50 cells per well; well left out of scoring,inactive
Uts2 (GeneID 24111),,2.1,0.913,fewer than 50 cells per well; well left out of scoring,inactive
Klhl28 (GeneID 66689),0.57,1.25,1.6,enough cells to score,inactive
Igtp (GeneID 16145),-0.47,1.49,1.36,enough cells to score,inactive
Rnf121 (GeneID 75212),-0.05,1.41,1.1,enough cells to score,inactive
Pnpla6 (GeneID 50767),1.72,1.93,1.82,enough cells to score,inactive
Ablim3 (GeneID 319713),0.23,1.61,1.58,enough cells to score,inactive
Sowahb (GeneID 78088),,1.19,1.25,fewer than 50 cells per well; well left out of scoring,inactive
Golgb1 (GeneID 224139),-0.02,1.38,1.42,enough cells to score,inactive
Gnb1 (GeneID 14688),1,1.63,1.75,enough cells to score,inactive
Ofd1 (GeneID 237222),-1.11,1.27,1.3,enough cells to score,inactive
Fastk (GeneID 66587),-0.06,1.77,1.38,enough cells to score,inactive
Dvl1 (GeneID 13542),-0.14,1.48,1.34,enough cells to score,inactive
Tmed2 (GeneID 56334),0.59,1.67,1.48,enough cells to score,inactive
Nmur1 (GeneID 14767),-1.07,1.29,1.49,enough cells to score,inactive
Twist2 (GeneID 13345),,1.05,0.851,fewer than 50 cells per well; well left out of scoring,inactive
1700084J12Rik (GeneID 73486),-1.15,1.16,1.36,enough cells to score,inactive
Crkl (GeneID 12929),0.16,1.73,1.41,enough cells to score,inactive
Cdkn2a (GeneID 12578),0.53,1.66,1.88,enough cells to score,inactive
Polr1a (GeneID 20019),,1.17,1.05,fewer than 50 cells per well; well left out of scoring,inactive
Ins2 (GeneID 16334),-0.51,1.37,1.34,enough cells to score,inactive
Sntb1 (GeneID 20649),0.11,1.43,1.24,enough cells to score,inactive
Tex15 (GeneID 104271),0.6,1.46,1.24,enough cells to score,inactive
Hnrnpc (GeneID 15381),0.66,1.75,1.63,enough cells to score,inactive
Ppwd1 (GeneID 238831),,1.31,1.35,fewer than 50 cells per well; well left out of scoring,inactive
Tmem98 (GeneID 103743),0.3,1.67,1.65,enough cells to score,inactive
Nalcn (GeneID 338370),0.34,1.37,1.63,enough cells to score,inactive
Fkbp5 (GeneID 14229),0.38,1.46,1.44,enough cells to score,inactive
Pla2g5 (GeneID 18784),-0.58,1.37,1.38,enough cells to score,inactive
Cdk3 (GeneID 69681),-1.07,1.51,1.53,enough cells to score,inactive
Kel (GeneID 23925),1.19,1.52,1.64,enough cells to score,inactive
Syngr3 (GeneID 20974),,1.71,1.02,fewer than 50 cells per well; well left out of scoring,inactive
Hoxb9 (GeneID 15417),0.7,1.83,1.57,enough cells to score,inactive
Map4k1 (GeneID 26411),-1.04,,1.25,enough cells to score,inactive
Gabbr1 (GeneID 54393),0.54,1.58,1.66,enough cells to score,inactive
Ache (GeneID 11423),1.01,1.68,1.86,enough cells to score,inactive
Psmd9 (GeneID 67151),,1.3,1.16,fewer than 50 cells per well; well left out of scoring,inactive
Ftmt (GeneID 67634),,1.1,1.3,fewer than 50 cells per well; well left out of scoring,inactive
Smim30 (GeneID 66520),2.9,1.78,1.78,enough cells to score,inactive
Rgs5 (GeneID 19737),-0.82,1.36,1.5,enough cells to score,inactive
Ccp110 (GeneID 101565),0.01,1.44,1.46,enough cells to score,inactive
Cox20 (GeneID 66359),,1.79,1.49,fewer than 50 cells per well; well left out of scoring,inactive
Nup153 (GeneID 218210),-0.82,1.32,1.32,enough cells to score,inactive
Hspa14 (GeneID 50497),,1.48,1.58,fewer than 50 cells per well; well left out of scoring,inactive
Adipor2 (GeneID 68465),0.12,1.52,1.63,enough cells to score,inactive
Stk24 (GeneID 223255),-0.31,1.67,1.32,enough cells to score,inactive
Krtap13-20 (GeneID 117172),,1.59,1.39,fewer than 50 cells per well; well left out of scoring,inactive
9130401M01Rik (GeneID 75758),-0.69,1.32,1.46,enough cells to score,inactive
Afap1l2 (GeneID 226250),0.03,1.72,1.4,enough cells to score,inactive
Pygl (GeneID 110095),1.47,1.74,1.8,enough cells to score,inactive
Foxq1 (GeneID 15220),0.72,1.66,1.59,enough cells to score,inactive
Tmed4 (GeneID 103694),1.17,1.61,1.7,enough cells to score,inactive
Slc24a2 (GeneID 76376),-0.71,1.27,1.21,enough cells to score,inactive
Rcn1 (GeneID 19672),0.1,1.43,1.23,enough cells to score,inactive
Rnd2 (GeneID 11858),-0.13,1.51,1.49,enough cells to score,inactive
Slc5a3 (GeneID 53881),-0.7,1.19,1.28,enough cells to score,inactive
Six6 (GeneID 20476),0.14,1.58,1.56,enough cells to score,inactive
1110004F10Rik (GeneID 56372),0.79,1.58,1.62,enough cells to score,inactive
Itga9 (GeneID 104099),0.52,1.48,1.51,enough cells to score,inactive
Pabpc2 (GeneID 18459),-0.18,1.43,1.21,enough cells to score,inactive
Sag (GeneID 20215),-1,1.41,1.34,enough cells to score,inactive
Or11g1 (GeneID 258662),,1.29,1.1,fewer than 50 cells per well; well left out of scoring,inactive
B4galt6 (GeneID 56386),1.35,1.77,2.08,enough cells to score,inactive
Top3a (GeneID 21975),1.09,1.65,1.7,enough cells to score,inactive
Kcnab3 (GeneID 16499),-0.1,1.48,1.35,enough cells to score,inactive

Individual results from the entries so far.
Value of Syngr3 (GeneID 20974) under “nuclear/cytoplasmic p65 ratio, rep 2”: 1.02
Under “call”, Mok (GeneID 26448) has inactive
Sag (GeneID 20215), call = inactive
Entry of Dvl1 (GeneID 13542) under “call”: inactive
Value for Or10ak13 (GeneID 258306) in “nuclear/cytoplasmic p65 ratio, rep 1”: 1.82
Entry for Cdk3 (GeneID 69681) under “call”: inactive
